This note sets out measurements from PMC6090058.

Protein sequences, listed by entry. Tags and fused reporters are not part of them. Lines headed by an entry give the natural chain unless they say otherwise; changes in a name come on top. Residues count along the entry.
UniProt P08603, residues 19-1231: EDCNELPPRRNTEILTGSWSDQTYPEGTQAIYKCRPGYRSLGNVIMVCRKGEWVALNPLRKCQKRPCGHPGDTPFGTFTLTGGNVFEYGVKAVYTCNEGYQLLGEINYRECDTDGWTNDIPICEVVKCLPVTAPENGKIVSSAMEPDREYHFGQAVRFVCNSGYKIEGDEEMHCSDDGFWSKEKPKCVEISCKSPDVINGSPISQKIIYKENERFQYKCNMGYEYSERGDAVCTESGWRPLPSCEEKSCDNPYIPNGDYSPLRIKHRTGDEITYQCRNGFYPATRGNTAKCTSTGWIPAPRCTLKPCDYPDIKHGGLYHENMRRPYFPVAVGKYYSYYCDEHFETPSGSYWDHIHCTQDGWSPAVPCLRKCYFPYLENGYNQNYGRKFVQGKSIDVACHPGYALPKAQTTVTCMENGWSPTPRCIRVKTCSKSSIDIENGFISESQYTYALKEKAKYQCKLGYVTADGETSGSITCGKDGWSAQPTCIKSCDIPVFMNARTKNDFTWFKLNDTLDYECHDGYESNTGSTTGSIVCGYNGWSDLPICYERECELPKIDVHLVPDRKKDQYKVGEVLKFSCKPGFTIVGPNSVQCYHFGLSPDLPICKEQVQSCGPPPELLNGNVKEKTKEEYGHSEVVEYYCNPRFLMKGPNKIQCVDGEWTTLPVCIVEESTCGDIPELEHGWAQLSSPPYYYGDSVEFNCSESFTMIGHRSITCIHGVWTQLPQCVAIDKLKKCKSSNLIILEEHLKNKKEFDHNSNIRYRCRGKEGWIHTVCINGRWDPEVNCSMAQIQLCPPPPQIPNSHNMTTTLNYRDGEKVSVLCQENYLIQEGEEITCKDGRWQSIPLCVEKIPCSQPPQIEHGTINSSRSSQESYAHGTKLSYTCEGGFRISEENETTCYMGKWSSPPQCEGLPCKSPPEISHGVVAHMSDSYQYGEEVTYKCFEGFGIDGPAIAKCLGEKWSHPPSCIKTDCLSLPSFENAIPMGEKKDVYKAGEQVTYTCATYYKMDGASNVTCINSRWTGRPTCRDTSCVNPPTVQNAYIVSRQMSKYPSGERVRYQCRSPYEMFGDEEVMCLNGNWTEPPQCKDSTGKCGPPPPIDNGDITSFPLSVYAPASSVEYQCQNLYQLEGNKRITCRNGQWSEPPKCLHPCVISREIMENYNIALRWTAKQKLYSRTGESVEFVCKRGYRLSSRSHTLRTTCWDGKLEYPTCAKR
UniProt P08174, residues 35-353: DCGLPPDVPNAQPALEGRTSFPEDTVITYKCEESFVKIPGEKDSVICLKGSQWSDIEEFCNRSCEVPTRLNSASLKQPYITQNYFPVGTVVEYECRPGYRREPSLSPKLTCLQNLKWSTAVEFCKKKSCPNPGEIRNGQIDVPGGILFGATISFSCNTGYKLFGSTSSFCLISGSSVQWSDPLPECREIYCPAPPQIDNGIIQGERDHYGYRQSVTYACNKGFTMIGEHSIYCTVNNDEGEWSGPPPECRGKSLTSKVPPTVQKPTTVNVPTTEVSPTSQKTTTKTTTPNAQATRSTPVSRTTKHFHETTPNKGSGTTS
UniProt P05156, residues 19-583: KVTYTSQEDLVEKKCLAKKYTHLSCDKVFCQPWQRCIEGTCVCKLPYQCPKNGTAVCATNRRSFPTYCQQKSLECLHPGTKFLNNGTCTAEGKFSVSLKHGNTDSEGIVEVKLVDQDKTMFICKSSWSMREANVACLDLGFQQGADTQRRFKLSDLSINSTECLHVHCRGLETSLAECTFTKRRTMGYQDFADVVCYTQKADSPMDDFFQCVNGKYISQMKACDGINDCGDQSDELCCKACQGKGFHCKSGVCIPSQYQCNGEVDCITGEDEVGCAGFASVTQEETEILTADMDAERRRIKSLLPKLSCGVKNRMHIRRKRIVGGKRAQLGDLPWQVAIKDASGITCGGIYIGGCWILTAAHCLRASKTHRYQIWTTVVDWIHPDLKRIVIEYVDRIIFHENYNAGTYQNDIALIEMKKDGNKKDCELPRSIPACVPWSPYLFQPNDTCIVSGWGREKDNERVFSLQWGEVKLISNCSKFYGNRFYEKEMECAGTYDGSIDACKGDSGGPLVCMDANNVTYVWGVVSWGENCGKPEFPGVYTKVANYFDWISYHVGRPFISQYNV
UniProt P01024: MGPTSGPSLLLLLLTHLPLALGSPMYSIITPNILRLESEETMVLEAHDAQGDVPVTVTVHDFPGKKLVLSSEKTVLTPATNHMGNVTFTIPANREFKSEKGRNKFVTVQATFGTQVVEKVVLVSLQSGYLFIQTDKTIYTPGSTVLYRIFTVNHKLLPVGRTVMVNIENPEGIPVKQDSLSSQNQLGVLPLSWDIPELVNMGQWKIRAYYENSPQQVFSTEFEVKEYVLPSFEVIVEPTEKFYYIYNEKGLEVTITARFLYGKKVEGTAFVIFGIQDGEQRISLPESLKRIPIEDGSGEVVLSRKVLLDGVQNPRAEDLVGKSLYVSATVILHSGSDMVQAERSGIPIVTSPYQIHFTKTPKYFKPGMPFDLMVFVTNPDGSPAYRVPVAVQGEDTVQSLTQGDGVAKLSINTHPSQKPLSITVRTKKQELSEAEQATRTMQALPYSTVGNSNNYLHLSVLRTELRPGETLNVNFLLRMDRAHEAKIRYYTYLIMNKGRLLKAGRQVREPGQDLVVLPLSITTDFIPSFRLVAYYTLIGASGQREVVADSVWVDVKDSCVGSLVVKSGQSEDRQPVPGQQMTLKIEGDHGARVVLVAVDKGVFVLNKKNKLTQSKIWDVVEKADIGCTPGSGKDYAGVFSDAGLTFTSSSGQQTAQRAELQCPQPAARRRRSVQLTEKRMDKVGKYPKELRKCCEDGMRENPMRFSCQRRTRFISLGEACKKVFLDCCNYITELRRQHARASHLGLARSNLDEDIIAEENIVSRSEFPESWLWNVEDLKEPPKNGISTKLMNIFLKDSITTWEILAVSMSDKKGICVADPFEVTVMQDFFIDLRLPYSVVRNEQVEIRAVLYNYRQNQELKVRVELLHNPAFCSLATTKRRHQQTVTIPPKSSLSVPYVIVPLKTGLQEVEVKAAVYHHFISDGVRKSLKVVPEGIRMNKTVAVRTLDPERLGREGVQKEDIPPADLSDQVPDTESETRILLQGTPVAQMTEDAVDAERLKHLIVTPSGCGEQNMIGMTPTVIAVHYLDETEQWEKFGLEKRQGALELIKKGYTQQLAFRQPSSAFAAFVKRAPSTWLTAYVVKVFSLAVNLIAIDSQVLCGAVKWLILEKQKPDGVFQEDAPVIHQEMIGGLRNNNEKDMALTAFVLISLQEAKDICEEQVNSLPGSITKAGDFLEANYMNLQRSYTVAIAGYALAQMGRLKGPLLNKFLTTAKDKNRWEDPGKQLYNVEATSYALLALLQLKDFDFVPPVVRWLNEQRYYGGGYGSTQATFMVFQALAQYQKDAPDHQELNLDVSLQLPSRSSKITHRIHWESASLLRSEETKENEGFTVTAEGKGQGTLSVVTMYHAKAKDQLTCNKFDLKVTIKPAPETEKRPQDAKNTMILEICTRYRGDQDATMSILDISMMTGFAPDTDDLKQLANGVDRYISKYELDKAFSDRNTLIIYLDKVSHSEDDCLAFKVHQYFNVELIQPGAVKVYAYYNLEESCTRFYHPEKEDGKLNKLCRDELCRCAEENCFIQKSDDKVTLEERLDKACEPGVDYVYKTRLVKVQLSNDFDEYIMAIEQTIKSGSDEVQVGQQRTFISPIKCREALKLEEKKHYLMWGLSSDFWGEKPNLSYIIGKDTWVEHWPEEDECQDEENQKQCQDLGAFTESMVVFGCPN

These are yes or no findings as the source states them, for the method shown. Some results given as binding are weak or reduced against the parent protein; the word gives no strength.

What all share (experiment): ELISA; ligand coated on microtiter plates at 5 µg/ml (factor B 10 µg/ml) in PBS; methylamine-treated C3 cell media at four concentrations in low salt buffer (10 mM Tris, pH 7.2, 25 mM NaCl, 0.05% Tween 20, 4% BSA), 2 h at 37°C; bound C3met detected with rabbit anti-human C3c antibody; only the target purified
On the technique in general: An ELISA detects its analyte on a solid surface through an enzyme-linked reagent.

Test [1] has as its target factor H (UniProt P08603).
Test [2] has as its target CD55 (UniProt P08174).
The target of test [3] is factor I (UniProt P05156).

Take “C3met G1606D (from UniProt P01024 23-667; P01024 672-1663)”: the binding result in test [1], in test [2] and in test [3] was “binds” in each case. Regarding “C3met K155Q (from UniProt P01024 23-667; P01024 672-1663)”, the binding result in test [1] was “binds”. Same read-out and setting: under “C3met R102G (from UniProt P01024 23-667; P01024 672-1663)” stands “binds”; under “C3met R735W (from UniProt P01024 23-667; P01024 672-1663)”, “binds”.

In the case of “C3met R1591G (from UniProt P01024 23-667; P01024 672-1663)”, the binding entry in test [1] and in test [3] was “binds” each time. On to “C3met, methylamine-treated recombinant complement component C3, wild type (from UniProt P01024 23-667; P01024 672-1663)”, for which the binding entry in test [1], in test [2] and in test [3] was “binds” in each case.
